The numbers were not newly measured in patent EP1479382A1, “Oral pharmaceutical compositions containing taxanes and methods for treatment employing the same” (IVAX Research, Inc., priority 1999, dated 2000), which cites them from elsewhere.

Molecules are shown by their SMILES.

With `CC(=O)O[C@H]1C(=O)[C@@]2(C)[C@H]([C@H](OC(=O)c3ccccc3)[C@]3(O)C[C@H](OC(=O)[C@H](O)[C@@H](NC(=O)c4ccccc4)c4ccccc4)C(C)=C1C3(C)C)[C@]1(OC(C)=O)CO[C@@H]1C[C@@H]2O` [paclitaxel], the solubility in water entry is reported as “only slightly soluble in water”.
